Test results as given in EP4800020A2, “ZWITTERIONIC REAGENTS” (Siemens Healthcare Diagnostics, Inc., priority 2010, dated 2011).

How the values were obtained:
[1] = tested on: PMP-anti-TSH antibody; experiment: Fractional non-specific binding (fNSB) of chemiluminescent conjugates to PMP solid phase; conditions: for fNSB, Solid Phase PMP: Table 3, NSP-DMAE-AVD, # of zwitterionic labels in input 0
[2] = tested on: Dynal M280-streptavidin bound biotinylated polyclonal goat anti-PTH antibody; experiment: Fractional non-specific binding (fNSB) of chemiluminescent conjugates to M280 solid phase
[3] = tested on: Dynal M270-streptavidin bound biotinylated monoclonal mouse anti-cTnI antibody; experiment: Fractional non-specific binding (fNSB) of chemiluminescent conjugates to M270 solid phase
[4] = conjugate further labeled with 25 equivalents of Z3-PFP, 10 minutes incubation
[5] = conjugate labeled only with NSP-DMAE, 10 minutes incubation
[6] = Table 3, NSP-DMAE-AVD, # of zwitterionic labels in input 0

Substance | fNSB, Solid Phase PMP, Z3-PFP Modified [1, 4] | fNSB, Solid Phase M280, Z3-PFP Modified [2, 4] | fNSB, Solid Phase M270, Z3-PFP Modified [3, 4] | fNSB, Solid Phase PMP ([1]; listed as Control) | fNSB, Solid Phase PMP ([1]; listed as NSP-DMAE-avidin) | fNSB, Solid Phase PMP, Unmodified [1, 5] | fNSB, Solid Phase M280 [2, 6] | fNSB, Solid Phase M280, Unmodified [2, 5] | fNSB, Solid Phase M270 [3, 6] | fNSB, Solid Phase M270, Unmodified [3, 5]
NSP-DMAE-AVD Z3-PFP Modified: acridinium ester-labeled avidin further labeled with 25 equivalents of Z3-PFP, compound 2c | 1.7 x 10^-4 | 8.3 x 10^-5 | 5.2 x 10^-4 | – | – | – | – | – | – | –
NSP-DMAE-AVD: egg white avidin (AVD) labeled with 10 equivalents of the acridinium ester NSP-DMAE | – | – | – | 1.1 x10^-3 | 1.3 x 10^-3 | 1.3 x 10^-3 | 1.8 x10^-4 | 1.6 x 10^-4 | 2.4 x10^-3 | 6.3 x 10^-2
